What all share (assay): co-IP
Assay [1] has as its target T1, Snip1 (mouse (endogenous in NPCs)) (UniProt Q8BIZ6).
T1 sequence: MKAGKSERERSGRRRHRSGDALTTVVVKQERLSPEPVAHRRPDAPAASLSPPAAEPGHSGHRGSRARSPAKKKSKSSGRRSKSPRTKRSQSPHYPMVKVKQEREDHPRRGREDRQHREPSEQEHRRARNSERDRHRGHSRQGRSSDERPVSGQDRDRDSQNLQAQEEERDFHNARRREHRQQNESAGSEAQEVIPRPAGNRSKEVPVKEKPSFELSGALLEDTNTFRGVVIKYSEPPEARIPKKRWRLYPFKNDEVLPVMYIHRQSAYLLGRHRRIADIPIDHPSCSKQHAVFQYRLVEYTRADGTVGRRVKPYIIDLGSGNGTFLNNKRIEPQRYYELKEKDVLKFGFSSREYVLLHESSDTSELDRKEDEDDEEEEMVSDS

Amino acid sequences for entries named in this document (tags omitted).
UniProt Q61188: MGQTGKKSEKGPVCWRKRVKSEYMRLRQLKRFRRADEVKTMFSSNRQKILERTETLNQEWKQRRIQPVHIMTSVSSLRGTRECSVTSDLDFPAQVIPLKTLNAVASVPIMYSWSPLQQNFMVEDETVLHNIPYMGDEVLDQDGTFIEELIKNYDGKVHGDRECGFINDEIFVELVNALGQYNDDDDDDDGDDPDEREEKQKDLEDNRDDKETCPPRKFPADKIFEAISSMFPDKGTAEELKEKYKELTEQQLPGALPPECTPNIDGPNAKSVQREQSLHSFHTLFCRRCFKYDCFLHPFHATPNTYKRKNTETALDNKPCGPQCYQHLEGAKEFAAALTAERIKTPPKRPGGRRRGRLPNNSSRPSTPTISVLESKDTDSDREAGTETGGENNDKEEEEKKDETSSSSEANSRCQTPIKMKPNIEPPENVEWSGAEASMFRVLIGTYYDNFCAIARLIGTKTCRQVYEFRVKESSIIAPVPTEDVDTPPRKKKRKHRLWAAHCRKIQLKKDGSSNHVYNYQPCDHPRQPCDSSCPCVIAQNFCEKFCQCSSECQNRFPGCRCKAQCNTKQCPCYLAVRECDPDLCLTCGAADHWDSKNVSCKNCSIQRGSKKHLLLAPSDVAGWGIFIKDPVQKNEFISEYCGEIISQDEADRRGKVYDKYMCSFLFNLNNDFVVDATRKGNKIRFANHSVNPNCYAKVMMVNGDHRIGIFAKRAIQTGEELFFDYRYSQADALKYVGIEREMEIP
UniProt P45481: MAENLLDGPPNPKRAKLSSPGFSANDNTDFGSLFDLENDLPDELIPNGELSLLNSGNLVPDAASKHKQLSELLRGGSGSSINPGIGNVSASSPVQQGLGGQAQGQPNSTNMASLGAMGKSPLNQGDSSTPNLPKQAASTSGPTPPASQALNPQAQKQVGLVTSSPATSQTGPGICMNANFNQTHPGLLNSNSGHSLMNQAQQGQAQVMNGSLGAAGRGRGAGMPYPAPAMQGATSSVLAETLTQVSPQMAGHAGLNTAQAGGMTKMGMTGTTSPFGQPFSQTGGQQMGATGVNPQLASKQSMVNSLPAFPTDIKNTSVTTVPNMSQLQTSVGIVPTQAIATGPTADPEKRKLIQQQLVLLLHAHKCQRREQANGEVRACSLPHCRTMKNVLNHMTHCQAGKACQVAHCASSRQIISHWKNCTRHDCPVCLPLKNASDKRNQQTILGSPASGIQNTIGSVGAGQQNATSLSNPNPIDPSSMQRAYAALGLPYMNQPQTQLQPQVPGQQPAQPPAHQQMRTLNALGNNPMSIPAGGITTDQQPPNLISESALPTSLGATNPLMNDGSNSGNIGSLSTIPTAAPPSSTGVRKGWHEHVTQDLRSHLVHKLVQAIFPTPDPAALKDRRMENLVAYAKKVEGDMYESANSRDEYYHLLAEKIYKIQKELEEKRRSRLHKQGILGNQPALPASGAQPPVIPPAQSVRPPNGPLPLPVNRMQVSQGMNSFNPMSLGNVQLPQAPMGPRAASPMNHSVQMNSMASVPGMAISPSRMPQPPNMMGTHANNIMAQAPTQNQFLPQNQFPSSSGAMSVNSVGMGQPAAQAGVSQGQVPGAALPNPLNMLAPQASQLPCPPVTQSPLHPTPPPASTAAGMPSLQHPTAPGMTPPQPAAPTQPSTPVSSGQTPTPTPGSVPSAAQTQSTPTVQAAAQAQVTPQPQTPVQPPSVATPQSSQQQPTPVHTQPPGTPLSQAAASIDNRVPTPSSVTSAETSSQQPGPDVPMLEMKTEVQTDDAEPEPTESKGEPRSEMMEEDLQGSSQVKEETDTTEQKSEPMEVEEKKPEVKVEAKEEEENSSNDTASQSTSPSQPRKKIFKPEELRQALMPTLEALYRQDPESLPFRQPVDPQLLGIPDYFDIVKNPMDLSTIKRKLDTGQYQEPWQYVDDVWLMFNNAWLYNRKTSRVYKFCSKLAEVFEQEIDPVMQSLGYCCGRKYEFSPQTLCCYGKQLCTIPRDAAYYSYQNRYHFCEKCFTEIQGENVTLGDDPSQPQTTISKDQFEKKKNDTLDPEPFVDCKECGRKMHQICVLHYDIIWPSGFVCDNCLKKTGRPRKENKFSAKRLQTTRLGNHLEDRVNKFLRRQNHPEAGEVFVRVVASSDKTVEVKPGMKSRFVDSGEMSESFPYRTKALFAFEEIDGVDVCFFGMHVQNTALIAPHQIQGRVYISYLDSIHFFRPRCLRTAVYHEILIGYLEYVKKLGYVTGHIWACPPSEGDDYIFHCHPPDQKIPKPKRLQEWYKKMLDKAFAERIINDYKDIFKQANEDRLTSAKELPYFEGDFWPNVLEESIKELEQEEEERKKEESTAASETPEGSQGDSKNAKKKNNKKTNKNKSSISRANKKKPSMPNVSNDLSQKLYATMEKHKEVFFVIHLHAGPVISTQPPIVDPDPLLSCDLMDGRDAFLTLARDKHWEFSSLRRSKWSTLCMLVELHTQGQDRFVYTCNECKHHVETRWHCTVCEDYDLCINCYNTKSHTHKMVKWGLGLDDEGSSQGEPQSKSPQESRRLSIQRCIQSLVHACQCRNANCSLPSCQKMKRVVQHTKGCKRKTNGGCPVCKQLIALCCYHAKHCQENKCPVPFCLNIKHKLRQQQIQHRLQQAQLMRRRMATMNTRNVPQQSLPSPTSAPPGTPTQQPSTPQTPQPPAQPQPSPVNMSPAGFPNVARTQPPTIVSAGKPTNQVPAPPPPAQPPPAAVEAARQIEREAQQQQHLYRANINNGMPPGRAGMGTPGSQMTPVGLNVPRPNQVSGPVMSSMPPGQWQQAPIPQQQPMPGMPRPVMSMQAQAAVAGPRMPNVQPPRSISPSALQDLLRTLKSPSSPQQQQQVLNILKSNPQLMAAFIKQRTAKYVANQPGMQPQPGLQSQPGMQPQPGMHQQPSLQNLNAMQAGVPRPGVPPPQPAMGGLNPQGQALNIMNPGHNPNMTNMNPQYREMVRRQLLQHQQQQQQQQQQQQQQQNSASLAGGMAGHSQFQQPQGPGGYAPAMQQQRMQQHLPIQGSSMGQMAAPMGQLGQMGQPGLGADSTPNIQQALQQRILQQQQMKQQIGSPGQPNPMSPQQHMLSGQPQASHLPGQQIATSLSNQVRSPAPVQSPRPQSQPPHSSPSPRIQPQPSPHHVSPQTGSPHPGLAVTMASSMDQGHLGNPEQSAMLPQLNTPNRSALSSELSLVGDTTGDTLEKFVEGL
UniProt Q8BX09: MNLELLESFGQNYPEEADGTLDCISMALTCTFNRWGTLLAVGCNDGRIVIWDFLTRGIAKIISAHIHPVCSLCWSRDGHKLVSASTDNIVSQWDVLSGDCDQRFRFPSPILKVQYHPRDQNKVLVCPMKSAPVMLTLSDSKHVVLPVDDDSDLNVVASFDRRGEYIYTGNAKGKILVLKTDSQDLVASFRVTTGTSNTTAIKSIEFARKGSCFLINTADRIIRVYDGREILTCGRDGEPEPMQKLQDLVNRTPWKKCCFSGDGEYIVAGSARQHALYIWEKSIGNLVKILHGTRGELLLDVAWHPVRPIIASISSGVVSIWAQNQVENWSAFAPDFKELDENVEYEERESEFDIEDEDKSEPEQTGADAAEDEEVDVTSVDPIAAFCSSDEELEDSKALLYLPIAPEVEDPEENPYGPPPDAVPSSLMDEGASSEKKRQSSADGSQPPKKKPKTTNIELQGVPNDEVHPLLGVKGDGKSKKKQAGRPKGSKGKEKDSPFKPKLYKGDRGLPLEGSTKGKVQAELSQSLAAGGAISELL
UniProt Q80U70: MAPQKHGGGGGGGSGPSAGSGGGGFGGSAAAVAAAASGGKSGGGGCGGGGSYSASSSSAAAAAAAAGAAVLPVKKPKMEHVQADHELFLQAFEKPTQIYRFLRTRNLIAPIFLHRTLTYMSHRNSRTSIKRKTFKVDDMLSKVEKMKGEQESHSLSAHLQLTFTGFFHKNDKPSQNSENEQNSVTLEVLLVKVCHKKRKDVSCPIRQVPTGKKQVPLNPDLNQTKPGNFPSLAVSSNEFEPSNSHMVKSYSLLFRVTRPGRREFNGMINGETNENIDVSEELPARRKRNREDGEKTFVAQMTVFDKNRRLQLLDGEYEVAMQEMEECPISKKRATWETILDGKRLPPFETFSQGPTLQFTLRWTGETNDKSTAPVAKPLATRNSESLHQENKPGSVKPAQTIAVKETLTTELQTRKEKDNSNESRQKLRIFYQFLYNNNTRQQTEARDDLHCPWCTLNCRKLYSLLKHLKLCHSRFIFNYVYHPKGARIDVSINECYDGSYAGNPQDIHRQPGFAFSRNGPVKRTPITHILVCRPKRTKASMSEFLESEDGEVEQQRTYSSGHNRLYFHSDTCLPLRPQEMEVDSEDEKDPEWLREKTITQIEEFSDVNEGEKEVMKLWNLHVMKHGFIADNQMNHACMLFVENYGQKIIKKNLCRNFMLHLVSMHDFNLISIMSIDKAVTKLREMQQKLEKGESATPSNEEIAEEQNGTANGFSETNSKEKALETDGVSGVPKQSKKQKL

For assay [2], the target named is Ezh2 (mouse (endogenous in NPCs)) (UniProt Q61188).
For assay [3], the target named is T2, Jarid2 (mouse (endogenous in NPCs)) (UniProt Q62315).
T2 sequence: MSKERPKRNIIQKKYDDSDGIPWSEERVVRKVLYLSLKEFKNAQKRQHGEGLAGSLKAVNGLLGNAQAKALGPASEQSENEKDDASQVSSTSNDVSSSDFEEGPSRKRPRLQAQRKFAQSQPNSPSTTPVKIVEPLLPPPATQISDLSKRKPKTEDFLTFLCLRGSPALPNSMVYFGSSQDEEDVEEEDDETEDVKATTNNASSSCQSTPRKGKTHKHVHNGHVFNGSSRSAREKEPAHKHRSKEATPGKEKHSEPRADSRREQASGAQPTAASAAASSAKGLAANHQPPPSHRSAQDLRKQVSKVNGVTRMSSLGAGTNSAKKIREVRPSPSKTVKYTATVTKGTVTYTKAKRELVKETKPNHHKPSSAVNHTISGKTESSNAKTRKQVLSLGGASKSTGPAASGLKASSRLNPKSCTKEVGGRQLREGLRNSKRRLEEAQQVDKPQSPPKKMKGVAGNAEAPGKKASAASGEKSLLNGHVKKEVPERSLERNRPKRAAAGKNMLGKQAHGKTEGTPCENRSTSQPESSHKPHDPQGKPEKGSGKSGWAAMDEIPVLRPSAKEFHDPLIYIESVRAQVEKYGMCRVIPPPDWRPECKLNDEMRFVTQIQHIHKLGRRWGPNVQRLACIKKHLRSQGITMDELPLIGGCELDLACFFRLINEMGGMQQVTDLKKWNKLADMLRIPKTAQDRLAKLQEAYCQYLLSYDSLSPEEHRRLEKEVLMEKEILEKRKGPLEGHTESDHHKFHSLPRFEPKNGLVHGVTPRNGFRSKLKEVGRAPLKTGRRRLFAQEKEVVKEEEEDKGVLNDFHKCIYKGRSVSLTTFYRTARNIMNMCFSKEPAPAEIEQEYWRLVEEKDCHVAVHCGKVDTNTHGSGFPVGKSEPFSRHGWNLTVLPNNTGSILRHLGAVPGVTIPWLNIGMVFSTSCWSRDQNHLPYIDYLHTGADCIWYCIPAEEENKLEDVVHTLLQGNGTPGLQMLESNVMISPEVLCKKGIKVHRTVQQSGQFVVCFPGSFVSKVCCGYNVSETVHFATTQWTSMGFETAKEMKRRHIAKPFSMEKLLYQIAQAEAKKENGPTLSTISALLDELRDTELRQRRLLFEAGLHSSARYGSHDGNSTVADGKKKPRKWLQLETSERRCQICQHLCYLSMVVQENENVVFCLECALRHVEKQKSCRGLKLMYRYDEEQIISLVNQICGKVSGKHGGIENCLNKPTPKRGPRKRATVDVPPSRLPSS

The target of assay [4] is Cbp (mouse (endogenous in NPCs)) (UniProt P45481).
In assay [5] the target is p300 (mouse (endogenous in NPCs)) (UniProt B2RWS6).

From doi:10.1101/2022.04.27.489801 come the findings set out here.

Results are given in words; binding and its absence hold for the method and conditions named. In cells and extracts the contact can be indirect. Some entries that bind do so weakly or less than the wild type.

Regarding Ezh2 (from UniProt Q61188 1-746), in assay [1], the binding result is on record as “binds”.

Regarding Rbbp5 (from UniProt Q8BX09 1-538), the binding entry in assay [2], in assay [3] and in assay [1] was “no binding” throughout.

With Suz12 (from UniProt Q80U70 1-741), in assay [1], the binding entry is “binds”.

B1: Snip1 (protein, UniProt Q8BIZ6 1-383)
chain: T1 sequence
B1: the binding result in assay [4] is “no binding”; in assay [2], “binds”; in assay [3], “binds”; in assay [5], “no binding”.

B2: Jarid2 (protein, UniProt Q62315 1-1234)
chain: T2 sequence
With B2, the binding result in assay [1] is “binds”.
